Measurements from article PMC3226675.
No constants are given. Whether binding was seen depends on the method and setting. In cells and extracts the contact can be indirect. These calls come from enrichment with a bait or labelling near it, and not all partners need be listed.

Target: GST-fused Stau2 (rat Staufen2, isoform Stau2^59) (rat)
Assay: affinity purification with mass spectrometry; GST-Stau2 or GST precipitated with glutathione-Sepharose 4B from extracts of stable 293F cell lines; lysis buffer 20 mM Tris-HCl pH 7.5, 150 mM NaCl, 1 mM DTT, 0.5% Tween 20, 20 ug/ml RNase A; 2 h at 4 C; eluted with reduced glutathione; SDS-PAGE, silver staining, bands identified by mass spectrometry and by Western blotting

binding | Binder
binds | Upf1, endogenous in 293F cells (protein, UniProt Q92900 1-1129) MSVEAYGPSSQTLTFLDTEEAELLGADTQGSEFEFTDFTLPSQTQTPPGGPGGPGGGGAGGPGGAGAGAAAGQLDAQVGPEGILQNGAVDDSVAKTSQLLAELNFEEDEEDTYYTKDLPIHACSYCGIHDPACVVYCNTSKKWFCNGRGNTSGSHIVNHLVRAKCKEVTLHKDGPLGETVLECYNCGCRNVFLLGFIPAKADSVVVLLCRQPCASQSSLKDINWDSSQWQPLIQDRCFLSWLVKIPSEQEQLRARQITAQQINKLEELWKENPSATLEDLEKPGVDEEPQHVLLRYEDAYQYQNIFGPLVKLEADYDKKLKESQTQDNITVRWDLGLNKKRIAYFTLPKTDSGNEDLVIIWLRDMRLMQGDEICLRYKGDLAPLWKGIGHVIKVPDNYGDEIAIELRSSVGAPVEVTHNFQVDFVWKSTSFDRMQSALKTFAVDETSVSGYIYHKLLGHEVEDVIIKCQLPKRFTAQGLPDLNHSQVYAVKTVLQRPLSLIQGPPGTGKTVTSATIVYHLARQGNGPVLVCAPSNIAVDQLTEKIHQTGLKVVRLCAKSREAIDSPVSFLALHNQIRNMDSMPELQKLQQLKDETGELSSADEKRYRALKRTAERELLMNADVICCTCVGAGDPRLAKMQFRSILIDESTQATEPECMVPVVLGAKQLILVGDHCQLGPVVMCKKAAKAGLSQSLFERLVVLGIRPIRLQVQYRMHPALSAFPSNIFYEGSLQNGVTAADRVKKGFDFQWPQPDKPMFFYVTQGQEEIASSGTSYLNRTEAANVEKITTKLLKAGAKPDQIGIITPYEGQRSYLVQYMQFSGSLHTKLYQEVEIASVDAFQGREKDFIILSCVRANEHQGIGFLNDPRRLNVALTRARYGVIIVGNPKALSKQPLWNHLLNYYKEQKVLVEGPLNNLRESLMQFSKPRKLVNTINPGARFMTTAMYDAREAIIPGSVYDRSSQGRPSSMYFQTHDQIGMISAGPSHVAAMNIPIPFNLVMPPMPPPGYFGQANGPAAGRGTPKGKTGRGGRQKNRFGLPGPSQTNLPNSQASQDVASQPFSQGALTQGYISMSQPSQMSQPGLSQPELSQDSYLGDEFKSQIDVALSQDSTYQGERAYQHGGVTGLSQY
binds | Mov10, endogenous in 293F cells (protein, UniProt Q9HCE1 1-1003) MPSKFSCRQLREAGQCFESFLVVRGLDMETDRERLRTIYNRDFKISFGTPAPGFSSMLYGMKIANLAYVTKTRVRFFRLDRWADVRFPEKRRMKLGSDISKHHKSLLAKIFYDRAEYLHGKHGVDVEVQGPHEARDGQLLIRLDLNRKEVLTLRLRNGGTQSVTLTHLFPLCRTPQFAFYNEDQELPCPLGPGECYELHVHCKTSFVGYFPATVLWELLGPGESGSEGAGTFYIARFLAAVAHSPLAAQLKPMTPFKRTRITGNPVVTNRIEEGERPDRAKGYDLELSMALGTYYPPPRLRQLLPMLLQGTSIFTAPKEIAEIKAQLETALKWRNYEVKLRLLLHLEELQMEHDIRHYDLESVPMTWDPVDQNPRLLTLEVPGVTESRPSVLRGDHLFALLSSETHQEDPITYKGFVHKVELDRVKLSFSMSLLSRFVDGLTFKVNFTFNRQPLRVQHRALELTGRWLLWPMLFPVAPRDVPLLPSDVKLKLYDRSLESNPEQLQAMRHIVTGTTRPAPYIIFGPPGTGKTVTLVEAIKQVVKHLPKAHILACAPSNSGADLLCQRLRVHLPSSIYRLLAPSRDIRMVPEDIKPCCNWDAKKGEYVFPAKKKLQEYRVLITTLITAGRLVSAQFPIDHFTHIFIDEAGHCMEPESLVAIAGLMEVKETGDPGGQLVLAGDPRQLGPVLRSPLTQKHGLGYSLLERLLTYNSLYKKGPDGYDPQFITKLLRNYRSHPTILDIPNQLYYEGELQACADVVDRERFCRWAGLPRQGFPIIFHGVMGKDEREGNSPSFFNPEEAATVTSYLKLLLAPSSKKGKARLSPRSVGVISPYRKQVEKIRYCITKLDRELRGLDDIKDLKVGSVEEFQGQERSVILISTVRSSQSFVQLDLDFNLGFLKNPKRFNVAVTRAKALLIIVGNPLLLGHDPDWKVFLEFCKENGGYTGCPFPAKLDLQQGQNLLQGLSKLSPSTSGPHSHDYLPQEREGEGGLSLQVEPEWRNEL
